Data reported in the supplement of paper PMC11732987, “Enantioselective OTUD7B fragment discovery through chemoproteomics screening and high-throughput optimisation” (Communications Chemistry, 2025).
Some of the results follow. The data scatter; read single values as rough.

Chains of the proteins cited; added tags and fusions are not shown. Lines headed by an entry give the natural chain unless they say otherwise; changes in a name come on top. Residues count along the entry.
UniProt Q8TEU7, 1363-1383: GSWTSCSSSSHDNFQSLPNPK
UniProt Q9BVS4, 481-502: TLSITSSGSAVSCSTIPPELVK
UniProt P20936: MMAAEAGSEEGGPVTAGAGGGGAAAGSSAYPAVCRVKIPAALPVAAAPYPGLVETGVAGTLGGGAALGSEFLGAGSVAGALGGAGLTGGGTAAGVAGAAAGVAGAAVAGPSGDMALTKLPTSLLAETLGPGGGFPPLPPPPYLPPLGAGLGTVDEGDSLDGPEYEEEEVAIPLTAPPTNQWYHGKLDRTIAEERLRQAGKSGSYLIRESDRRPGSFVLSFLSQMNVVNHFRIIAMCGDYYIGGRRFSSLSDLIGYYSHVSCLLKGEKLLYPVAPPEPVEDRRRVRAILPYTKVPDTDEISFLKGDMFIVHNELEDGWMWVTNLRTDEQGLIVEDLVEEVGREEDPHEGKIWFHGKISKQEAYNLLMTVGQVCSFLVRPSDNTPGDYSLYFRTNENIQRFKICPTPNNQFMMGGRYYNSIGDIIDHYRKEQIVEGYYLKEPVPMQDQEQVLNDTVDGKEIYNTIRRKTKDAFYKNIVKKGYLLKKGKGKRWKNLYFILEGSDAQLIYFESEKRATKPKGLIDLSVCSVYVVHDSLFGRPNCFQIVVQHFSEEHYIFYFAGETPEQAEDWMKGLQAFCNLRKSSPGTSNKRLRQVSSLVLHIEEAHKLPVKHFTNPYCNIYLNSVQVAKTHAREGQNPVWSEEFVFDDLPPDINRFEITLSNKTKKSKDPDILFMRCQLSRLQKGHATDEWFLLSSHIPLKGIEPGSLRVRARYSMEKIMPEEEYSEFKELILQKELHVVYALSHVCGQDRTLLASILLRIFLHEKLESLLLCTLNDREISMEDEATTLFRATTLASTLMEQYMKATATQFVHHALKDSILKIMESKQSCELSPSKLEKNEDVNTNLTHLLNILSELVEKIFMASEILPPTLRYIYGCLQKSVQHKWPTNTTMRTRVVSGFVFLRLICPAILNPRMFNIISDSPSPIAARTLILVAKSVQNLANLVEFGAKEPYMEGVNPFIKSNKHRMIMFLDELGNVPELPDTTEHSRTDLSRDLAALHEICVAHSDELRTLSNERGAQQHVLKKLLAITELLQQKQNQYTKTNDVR
UniProt P49792, whole entry, looked up: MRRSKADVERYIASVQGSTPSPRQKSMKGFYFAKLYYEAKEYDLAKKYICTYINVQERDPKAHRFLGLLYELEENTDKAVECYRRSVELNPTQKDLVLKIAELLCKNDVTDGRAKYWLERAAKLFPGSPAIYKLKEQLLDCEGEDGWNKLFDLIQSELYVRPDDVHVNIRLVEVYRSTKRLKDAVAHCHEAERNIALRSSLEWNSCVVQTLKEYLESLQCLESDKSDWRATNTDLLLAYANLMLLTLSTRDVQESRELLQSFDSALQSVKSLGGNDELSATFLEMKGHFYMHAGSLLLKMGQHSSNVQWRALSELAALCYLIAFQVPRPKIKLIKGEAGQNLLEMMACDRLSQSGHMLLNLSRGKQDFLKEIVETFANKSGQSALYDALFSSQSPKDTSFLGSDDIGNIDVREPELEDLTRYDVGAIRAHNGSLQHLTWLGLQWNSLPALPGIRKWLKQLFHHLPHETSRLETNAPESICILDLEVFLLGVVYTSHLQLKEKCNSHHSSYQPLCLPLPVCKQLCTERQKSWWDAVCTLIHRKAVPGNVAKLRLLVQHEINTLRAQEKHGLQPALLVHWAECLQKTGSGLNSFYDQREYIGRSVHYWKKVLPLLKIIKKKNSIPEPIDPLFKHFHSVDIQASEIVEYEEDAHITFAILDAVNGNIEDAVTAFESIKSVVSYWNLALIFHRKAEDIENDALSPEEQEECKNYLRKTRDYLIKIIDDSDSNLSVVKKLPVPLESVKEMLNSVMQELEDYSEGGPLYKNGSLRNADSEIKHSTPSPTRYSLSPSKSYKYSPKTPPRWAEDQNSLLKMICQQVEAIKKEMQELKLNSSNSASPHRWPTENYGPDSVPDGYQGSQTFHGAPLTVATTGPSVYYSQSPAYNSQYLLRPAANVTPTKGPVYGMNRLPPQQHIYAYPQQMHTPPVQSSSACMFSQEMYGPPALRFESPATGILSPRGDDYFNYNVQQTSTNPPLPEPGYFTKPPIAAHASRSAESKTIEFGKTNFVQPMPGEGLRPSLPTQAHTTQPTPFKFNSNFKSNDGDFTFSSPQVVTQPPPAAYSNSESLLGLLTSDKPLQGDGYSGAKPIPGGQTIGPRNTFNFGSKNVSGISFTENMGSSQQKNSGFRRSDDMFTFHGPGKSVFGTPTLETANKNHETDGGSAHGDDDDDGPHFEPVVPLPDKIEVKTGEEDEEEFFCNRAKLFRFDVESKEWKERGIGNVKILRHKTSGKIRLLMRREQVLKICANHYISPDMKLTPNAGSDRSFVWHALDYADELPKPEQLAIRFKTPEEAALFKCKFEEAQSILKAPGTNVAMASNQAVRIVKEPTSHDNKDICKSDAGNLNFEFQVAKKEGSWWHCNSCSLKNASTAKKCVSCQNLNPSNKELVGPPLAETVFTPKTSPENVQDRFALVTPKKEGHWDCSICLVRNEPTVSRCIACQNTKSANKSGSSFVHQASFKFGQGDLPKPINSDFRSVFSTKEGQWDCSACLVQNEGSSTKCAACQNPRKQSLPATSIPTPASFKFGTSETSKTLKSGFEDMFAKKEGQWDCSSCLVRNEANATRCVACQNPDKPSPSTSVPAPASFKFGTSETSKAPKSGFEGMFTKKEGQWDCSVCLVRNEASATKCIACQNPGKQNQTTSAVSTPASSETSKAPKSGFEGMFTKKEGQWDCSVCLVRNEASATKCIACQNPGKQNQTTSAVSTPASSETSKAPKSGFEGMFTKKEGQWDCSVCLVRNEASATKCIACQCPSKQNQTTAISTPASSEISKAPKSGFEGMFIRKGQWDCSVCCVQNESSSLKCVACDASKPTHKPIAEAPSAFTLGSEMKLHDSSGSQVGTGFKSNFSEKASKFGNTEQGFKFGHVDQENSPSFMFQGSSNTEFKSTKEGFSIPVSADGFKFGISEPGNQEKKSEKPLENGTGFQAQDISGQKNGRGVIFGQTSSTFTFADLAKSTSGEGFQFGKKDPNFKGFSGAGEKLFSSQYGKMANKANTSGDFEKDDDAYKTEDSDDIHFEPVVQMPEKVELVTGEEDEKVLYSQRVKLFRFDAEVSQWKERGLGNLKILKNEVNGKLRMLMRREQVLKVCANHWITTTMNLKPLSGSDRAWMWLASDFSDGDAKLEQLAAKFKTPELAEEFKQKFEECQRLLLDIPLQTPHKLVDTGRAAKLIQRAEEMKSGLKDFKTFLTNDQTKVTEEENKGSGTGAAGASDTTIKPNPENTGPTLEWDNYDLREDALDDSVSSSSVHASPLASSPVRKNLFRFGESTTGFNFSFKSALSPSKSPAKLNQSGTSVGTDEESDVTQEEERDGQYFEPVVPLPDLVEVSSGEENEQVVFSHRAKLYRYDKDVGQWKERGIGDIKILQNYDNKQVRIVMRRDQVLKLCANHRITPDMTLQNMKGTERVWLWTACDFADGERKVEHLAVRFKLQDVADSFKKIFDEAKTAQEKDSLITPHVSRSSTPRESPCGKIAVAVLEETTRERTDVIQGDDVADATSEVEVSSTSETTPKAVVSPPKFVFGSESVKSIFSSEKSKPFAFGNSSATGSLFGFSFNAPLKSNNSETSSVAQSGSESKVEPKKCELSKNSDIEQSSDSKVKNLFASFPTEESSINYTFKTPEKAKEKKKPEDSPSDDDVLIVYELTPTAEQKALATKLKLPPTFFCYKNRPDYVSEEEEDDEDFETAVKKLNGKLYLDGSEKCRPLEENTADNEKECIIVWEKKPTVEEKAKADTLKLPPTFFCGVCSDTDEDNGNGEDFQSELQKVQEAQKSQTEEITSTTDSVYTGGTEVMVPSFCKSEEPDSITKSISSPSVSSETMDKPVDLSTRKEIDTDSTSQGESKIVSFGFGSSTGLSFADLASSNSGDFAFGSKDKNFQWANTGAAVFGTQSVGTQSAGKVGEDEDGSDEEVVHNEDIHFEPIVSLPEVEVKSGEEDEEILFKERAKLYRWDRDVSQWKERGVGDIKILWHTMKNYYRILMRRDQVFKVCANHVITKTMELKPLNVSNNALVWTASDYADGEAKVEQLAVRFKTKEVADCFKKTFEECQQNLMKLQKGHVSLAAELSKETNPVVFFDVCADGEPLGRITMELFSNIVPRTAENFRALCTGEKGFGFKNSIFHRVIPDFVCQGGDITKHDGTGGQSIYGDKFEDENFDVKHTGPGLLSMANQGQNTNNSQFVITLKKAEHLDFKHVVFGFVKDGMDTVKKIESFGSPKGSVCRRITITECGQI
UniProt O94762: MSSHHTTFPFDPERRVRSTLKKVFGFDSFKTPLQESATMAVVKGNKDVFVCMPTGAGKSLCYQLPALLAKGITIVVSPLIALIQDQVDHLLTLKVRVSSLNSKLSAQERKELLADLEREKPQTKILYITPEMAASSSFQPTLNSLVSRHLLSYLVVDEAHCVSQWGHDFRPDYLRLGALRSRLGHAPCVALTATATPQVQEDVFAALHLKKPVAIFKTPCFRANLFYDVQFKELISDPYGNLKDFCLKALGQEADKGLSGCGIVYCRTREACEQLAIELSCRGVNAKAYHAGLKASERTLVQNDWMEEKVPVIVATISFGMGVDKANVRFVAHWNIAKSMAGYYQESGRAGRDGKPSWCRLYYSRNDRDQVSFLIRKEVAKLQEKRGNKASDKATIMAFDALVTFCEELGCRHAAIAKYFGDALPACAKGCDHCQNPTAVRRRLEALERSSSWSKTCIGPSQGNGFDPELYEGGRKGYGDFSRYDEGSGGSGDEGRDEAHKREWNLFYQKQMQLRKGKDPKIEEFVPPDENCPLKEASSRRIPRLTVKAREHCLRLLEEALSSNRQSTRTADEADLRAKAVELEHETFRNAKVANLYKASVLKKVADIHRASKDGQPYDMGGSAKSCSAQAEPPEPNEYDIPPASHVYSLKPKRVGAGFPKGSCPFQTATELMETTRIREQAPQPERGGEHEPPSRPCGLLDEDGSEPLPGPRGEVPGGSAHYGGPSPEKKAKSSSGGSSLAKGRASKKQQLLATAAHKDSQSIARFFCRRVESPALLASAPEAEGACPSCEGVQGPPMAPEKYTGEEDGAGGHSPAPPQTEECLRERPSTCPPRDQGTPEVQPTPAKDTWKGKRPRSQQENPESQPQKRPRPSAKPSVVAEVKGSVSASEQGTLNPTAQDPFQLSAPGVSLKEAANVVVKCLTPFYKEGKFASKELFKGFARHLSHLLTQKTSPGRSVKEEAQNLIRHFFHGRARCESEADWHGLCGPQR
UniProt Q5T160, 295-315: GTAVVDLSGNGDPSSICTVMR
UniProt Q96DM3: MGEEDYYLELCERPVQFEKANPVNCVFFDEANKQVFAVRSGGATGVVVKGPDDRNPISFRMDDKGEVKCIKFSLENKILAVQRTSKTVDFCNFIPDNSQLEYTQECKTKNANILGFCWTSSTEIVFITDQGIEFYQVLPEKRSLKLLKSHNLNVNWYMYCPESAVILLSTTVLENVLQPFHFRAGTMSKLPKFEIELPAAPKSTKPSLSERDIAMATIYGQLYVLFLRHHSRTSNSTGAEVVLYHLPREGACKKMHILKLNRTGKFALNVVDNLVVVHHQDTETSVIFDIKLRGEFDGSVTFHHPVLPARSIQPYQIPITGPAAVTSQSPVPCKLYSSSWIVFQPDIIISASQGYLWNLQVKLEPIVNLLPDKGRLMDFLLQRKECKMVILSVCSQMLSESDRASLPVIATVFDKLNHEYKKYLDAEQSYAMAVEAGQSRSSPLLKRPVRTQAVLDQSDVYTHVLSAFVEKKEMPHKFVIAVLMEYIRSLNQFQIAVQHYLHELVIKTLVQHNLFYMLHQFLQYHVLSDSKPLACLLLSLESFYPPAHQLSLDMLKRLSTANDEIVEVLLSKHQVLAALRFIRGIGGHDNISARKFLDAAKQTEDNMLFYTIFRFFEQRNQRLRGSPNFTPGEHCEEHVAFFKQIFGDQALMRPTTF
UniProt Q96S59, 587-606: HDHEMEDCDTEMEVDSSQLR
UniProt Q4ADV7, 408-429: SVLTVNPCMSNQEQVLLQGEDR
UniProt Q9P258, whole entry, looked up: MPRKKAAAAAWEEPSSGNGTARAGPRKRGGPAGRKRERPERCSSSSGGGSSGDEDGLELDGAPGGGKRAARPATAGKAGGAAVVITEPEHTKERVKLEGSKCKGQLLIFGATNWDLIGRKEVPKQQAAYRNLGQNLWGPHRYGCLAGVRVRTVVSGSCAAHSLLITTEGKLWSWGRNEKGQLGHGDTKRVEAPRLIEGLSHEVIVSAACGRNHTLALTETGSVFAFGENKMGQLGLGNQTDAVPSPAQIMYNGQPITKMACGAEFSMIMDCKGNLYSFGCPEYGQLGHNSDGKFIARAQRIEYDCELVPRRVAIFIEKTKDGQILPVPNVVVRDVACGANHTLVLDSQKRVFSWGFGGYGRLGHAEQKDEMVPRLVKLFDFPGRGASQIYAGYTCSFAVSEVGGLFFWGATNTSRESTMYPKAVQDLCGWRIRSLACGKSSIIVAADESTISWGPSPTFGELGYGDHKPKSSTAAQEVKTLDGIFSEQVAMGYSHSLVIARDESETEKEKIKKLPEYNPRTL

The targets below were run with ClCC(=O)N[C@@H]1CCCc2ccccc12 (assay: log2 mean competition ratio of IA-DTB cysteine labelling (DMSO/compound) (log2 ratio); higher = stronger cysteine engagement by compound). Conditions: 50 µM; treatment time: 4 h; cell line lysate: HEK293T.
Protocol: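 IA-DTB competitive cysteine chemoproteomics in HEK293T RIPA lysate. Lysates were treated with compound 29 or 30 at 50 or 200 µM for 4 h, then IA-DTB (500 µM, 1 h), trypsin-digested, NeutrAvidin-enriched and analysed by diaPASEF. Competition ratio = intensity DMSO / intensity compound (n=4 treated, n=64 DMSO); binding: mean log2 CR ≥ 1 and p ≤ 0.05 plus QC filters. Target is the cysteine site.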

Row | Target | log2 mean competition ratio
1 | RANBP6 C188 (UniProt O60518) | 0.449
2 | RAPGEF6 C1368 (UniProt Q8TEU7) | 0.126
3 | RIOK2 C493 (UniProt Q9BVS4) | 0.282
4 | RIPOR1 C945 (UniProt Q6ZS17) | 0.108
5 | RASA1 C876 (UniProt P20936) | -0.0537
6 | RHOBTB3 C155 (UniProt O94955) | 0.199
7 | RNASEH2A C24 (UniProt O75792) | -0.0789
8 | RAF1 C81 (UniProt P04049) | 0.629

Same assay, conditions: 200 µM; treatment time: 4 h; cell line lysate: HEK293T

Row | Target | log2 mean competition ratio
9 | RANBP2 C3122 (UniProt P49792) | -0.138
10 | RANBP2 C2710 (UniProt P49792) | 0.0685
11 | RASA1 C906 (UniProt P20936) | -0.287
12 | RANBP2 C815 (UniProt P49792) | -0.0835
13 | RECQL5 C427 (UniProt O94762) | -0.0448
14 | RARS2 C311 (UniProt Q5T160) | -0.224
15 | RMC1 C11 (UniProt Q96DM3) | 0.205
16 | RBPJ C180 (UniProt Q06330) | -0.135
17 | RIPK2 C324 (UniProt O43353) | 0.184
18 | RBM27 C49 (UniProt Q9P2N5) | 0.0145
19 | RAF1 C588 (UniProt P04049) | -0.0159
20 | RBM4 C31 (UniProt Q9BWF3) | -0.221
21 | RARA C148 | -0.0551
22 | RELCH C605 (UniProt Q9P260) | -0.0587
23 | RARS2 C74 (UniProt Q5T160) | -0.143
24 | RANBP9 C594 (UniProt Q96S59) | 0.349
25 | RHOF C30 (UniProt Q9HBH0) | 0.136
26 | RIC1 C415 (UniProt Q4ADV7) | -0.0494
27 | RARA C444 | 0.159

Row | Target | log2 mean competition ratio
28 | RB1 C278 (UniProt P06400) | -0.34
29 | RCL1 C171 | 0.345
30 | RBM4 C89 (UniProt Q9BWF3) | 0.00642
31 | RARS1 C502 | 0.0275
32 | RHOT1 C175 (UniProt Q8IXI2) | 0.187
33 | RFC4 C141 (UniProt P35249) | -0.116
34 | RCC2 C144 (UniProt Q9P258) | 0.0871
35 | RHOF C173 (UniProt Q9HBH0) | 0.0434
36 | RFX5 C107 (UniProt P48382) | 0.217
37 | RBBP7 C97 | -0.259
38 | RANBP6 C188 (UniProt O60518) | -0.0521
39 | RAPGEF6 C1368 (UniProt Q8TEU7) | 0.483
40 | RIOK2 C493 (UniProt Q9BVS4) | -0.369
41 | RIPOR1 C945 (UniProt Q6ZS17) | -0.12
42 | RASA1 C876 (UniProt P20936) | -0.331
43 | RHOBTB3 C155 (UniProt O94955) | 0.19
44 | RNASEH2A C24 (UniProt O75792) | 0.112
45 | RAF1 C81 (UniProt P04049) | 0.247
